Measured values published in PubChem BioAssay AID493014 (National Center for Advancing Translational Sciences (NCATS), 2011).
Some of the results follow. These are further read-outs of the screen, such as a control signal, another cell line or another target. No call is given for them. Most of these compounds were active or inconclusive in the main read-out, so they are no random draw. Words in brackets tell the shape of the fitted curve; partial curves, single points and poor fits give uncertain potencies.

Assay: qHTS Assay to Find Inhibitors of Chronic Active B-Cell Receptor Signaling
Details: ABC-DLBCL IkBa-CBG/CBR reporter, luminescence ratio (green luciferase fused to IkBa over red control in TMD8 lymphoma cells), 4 h
How it was run: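 TMD8 human ABC-DLBCL cells with doxycycline-inducible IκBα–green luciferase fusion and unfused red luciferase, in 0.5% FBS medium; compounds up to 46 uM, 4 h at 37C. Green/red luminescence ratio, filter-overlap corrected, fitted to concentration-response curves.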

[1] = measured here: CBR red luminescence, cell number
[2] = measured here: IkBa-CBG green luminescence

| Structure (SMILES) | AC50 [1] | AC50 [2] |
| --- | --- | --- |
| CN1CCCC(CC2Oc3ccccc3Sc3ccccc32)C1 (stereo not drawn) | 29.1 µM [falling, single point] | – |
| O=C(CSc1nc2ccccc2c(=O)[nH]1)Nc1ccccc1N1CCOCC1 | 3.55 µM [falling, partial curve, poor fit] | – |
| CC(C)(C)NC(=O)COC(=O)c1snc(C(=O)NC2CCCCC2)c1N | 29.1 µM [falling, partial curve, poor fit] | – |
| Cc1cccc(OCC(=O)NCC(=O)N/N=C/c2ccc(O)cc2O)c1 | 25.1 µM [falling, single point] | – |
| CCCCC(=O)NC(c1cccc([N+](=O)[O-])c1)c1c(OC(C)=O)ccc2ccccc12 (stereo not drawn) | 23.1 µM [falling, single point] | – |
| Cc1nc(Nc2c(Cl)cccc2Cl)sc1C(=O)Nc1ccccc1 | 1.64 µM [falling, full curve, poor fit] | – |
| COc1cccc(OCCn2cc(/C=N/NC(=O)c3ccncc3)c3ccccc32)c1 | 0.103 µM [rising, full curve, poor fit] | – |
| CCc1ccccc1NC(=O)CN(C)C(=O)Cn1ncc(Cl)c(Cl)c1=O | 5.8 µM [falling, full curve] | 6.51 µM [rising, full curve, poor fit] |
| COc1ccccc1NC(=S)N(Cc1cccnc1)Cc1ccccc1Cl | 10 µM [rising, partial curve] | – |
| CCn1cnc2cc(NCc3nc4ccccc4n3Cc3ccccc3)ccc21 | 29.1 µM [falling, single point] | – |
| O=C(Nc1ccc(Br)cc1F)c1ccc2c(c1)OCCO2 | 6.31 µM [falling, full curve] | – |
| Cc1ccccc1OCC(=O)NNC(=S)NC(=O)c1ccco1 | 2.82 µM [falling, full curve] | – |
| Clc1cc(Br)ccc1OCCOCCOc1cccc2cccnc12 | 3.55 µM [rising, full curve] | – |
| Cc1nc2ccccc2c(=O)n1/N=C/c1cn(-c2ccccc2)nc1-c1cccs1 | 2.82 µM [falling, partial curve] | – |
| Cc1cc(Nc2ccccc2Cl)nc(-c2ccccc2O)n1 | 8.91 µM [falling, partial curve] | 14.1 µM [rising, partial curve, poor fit] |
| Cn1c(CCN2CCCCC2)nc2cc(NC(=O)NC3CCCCC3)ccc21 | 5.62 µM [falling, partial curve, poor fit] | – |
| Cc1cc2c(cc1C)N(CC(=O)N1CCCC1)C(=O)CC(c1ccccc1)=N2 | 2.31 µM [rising, partial curve] | – |
| Cc1nc2sc(C(c3cccc(F)c3)N3CCC(C)CC3)c(O)n2n1 (stereo not drawn) | 29.1 µM [falling, single point] | – |
| COc1cc2c(C)nc3c(cnn3-c3ccccc3)c2cc1OC | 10 µM [rising, partial curve] | – |
| CC1(C)CCc2c([nH]c3ccccc3c2=O)O1 | 22.4 µM [rising, single point] | – |
| Cc1ccc(-c2csc(NC(=O)CN3C(=O)CCC3=O)n2)cc1 | 5.01 µM [falling, full curve] | – |
| CCCNc1nc2c(c(=O)n(C)c(=O)n2C)n1CCc1ccccc1 | 35.5 µM [falling, single point] | – |

Part of the list above in order of count of non-hydrogen atoms, smallest number first:

| Structure (SMILES) | AC50 [1] | AC50 [2] |
| --- | --- | --- |
| CC1(C)CCc2c([nH]c3ccccc3c2=O)O1 | 22.4 µM [rising, single point] | – |
| O=C(Nc1ccc(Br)cc1F)c1ccc2c(c1)OCCO2 | 6.31 µM [falling, full curve] | – |
| Cc1cc(Nc2ccccc2Cl)nc(-c2ccccc2O)n1 | 8.91 µM [falling, partial curve] | 14.1 µM [rising, partial curve, poor fit] |
| Cc1ccccc1OCC(=O)NNC(=S)NC(=O)c1ccco1 | 2.82 µM [falling, full curve] | – |
| Cc1nc(Nc2c(Cl)cccc2Cl)sc1C(=O)Nc1ccccc1 | 1.64 µM [falling, full curve, poor fit] | – |
| Clc1cc(Br)ccc1OCCOCCOc1cccc2cccnc12 | 3.55 µM [rising, full curve] | – |
| Cc1cccc(OCC(=O)NCC(=O)N/N=C/c2ccc(O)cc2O)c1 | 25.1 µM [falling, single point] | – |
| COc1ccccc1NC(=S)N(Cc1cccnc1)Cc1ccccc1Cl | 10 µM [rising, partial curve] | – |
| Cn1c(CCN2CCCCC2)nc2cc(NC(=O)NC3CCCCC3)ccc21 | 5.62 µM [falling, partial curve, poor fit] | – |
| CCn1cnc2cc(NCc3nc4ccccc4n3Cc3ccccc3)ccc21 | 29.1 µM [falling, single point] | – |
| Cc1nc2ccccc2c(=O)n1/N=C/c1cn(-c2ccccc2)nc1-c1cccs1 | 2.82 µM [falling, partial curve] | – |
| COc1cccc(OCCn2cc(/C=N/NC(=O)c3ccncc3)c3ccccc32)c1 | 0.103 µM [rising, full curve, poor fit] | – |

Two of these compounds in another layout:
Structure (SMILES),AC50 [1],AC50 [2]
Cc1nc2sc(C(c3cccc(F)c3)N3CCC(C)CC3)c(O)n2n1 (stereo not drawn),"29.1 µM [falling, single point]",–
COc1cc2c(C)nc3c(cnn3-c3ccccc3)c2cc1OC,"10 µM [rising, partial curve]",–

Remaining list, next part:

| Structure (SMILES) | AC50 [1] | AC50 [2] |
| --- | --- | --- |
| O=[N+]([O-])c1ccc(Cl)c2cccnc12 | 22.4 µM [falling, partial curve, poor fit] | – |
| CS(=O)(=O)N1CCN(c2nc(-c3ccccc3)cs2)CC1 | 29.1 µM [rising, single point] | – |
| COc1ccc(-n2c(SCC(N)=O)nc3sc4c(c3c2=O)CCC4)cc1 | 6.31 µM [rising, full curve, poor fit] | – |
| Cc1ccc(CNC(=O)C2CCN(S(=O)(=O)N3CCCCC3)CC2)cc1 | 5.62 µM [rising, single point] | – |
| CC(=O)Nc1ccc(SCC(=O)Nc2ccc(Cl)cn2)cc1 | 35.5 µM [falling, single point] | – |
| CC1(C)Cc2c(sc3c2c(=N)n(Cc2ccco2)c(=O)n3Cc2ccccc2)CO1 | 9.2 µM [falling, partial curve, poor fit] | – |
| Cc1[nH]c2ccccc2c1C(=O)CSc1ccc(F)cc1 | 9.2 µM [rising, partial curve] | – |
| Cc1c(C#N)c(NC(=O)CCl)n(Cc2cccs2)c1C | 0.562 µM [falling, full curve, poor fit] | – |
| Cc1ccc(NC(=S)NCC2CCN(C(C)c3ccccc3)C2)cc1 (stereo not drawn) | 0.794 µM [rising, full curve] | – |
| O=C(Nc1nnc(C2CC2)s1)c1cc2ccccc2o1 | 1.46 µM [falling, full curve] | – |
| O=C(CNC(=S)N(CCCN1CCOCC1)Cc1cccs1)NCc1ccc(Cl)cc1 | 11.2 µM [falling, partial curve, poor fit] | – |
| CCOC(=O)CCSCC(=O)Nc1cc(C)on1 | 14.1 µM [rising, partial curve, poor fit] | – |
| Cc1ccc(C(=O)/C=C/c2ccccc2)o1 | 29.1 µM [falling, single point] | – |
| CCOc1ccccc1Nc1ncnc2c1cnn2-c1ccc(C)cc1 | 6.31 µM [falling, full curve, poor fit] | – |
| NC(=O)c1ccc(-c2ncc(-c3ccccc3)o2)cc1 | – | 11.2 µM [falling, partial curve, poor fit] |
| Cc1nnc(NC2(C(F)(F)F)C(=O)Nc3c2c(=O)n(C)c(=O)n3C)s1 (stereo not drawn) | 0.651 µM [falling, partial curve, poor fit] | – |
| COc1ccc(CN(C(=O)CN2C(=O)NC3(CCC(C)CC3)C2=O)C(C)Cc2cccs2)cc1 (stereo not drawn) | 3.66 µM [rising, full curve, poor fit] | – |
| COc1cccc(NC(=O)CCCOc2cc(=O)n(C)c3ccccc23)c1 | 0.517 µM [rising, full curve, poor fit] | 0.58 µM [falling, partial curve, poor fit] |
| C=CCNC(=S)N/N=C/c1ccc(C(F)(F)F)cc1 | – | 35.5 µM [falling, partial curve, poor fit] |
| O=C(Nc1ccc2c(c1)CCC2)c1cc(=O)[nH]c2ccccc12 | 3.98 µM [rising, partial curve, poor fit] | – |
| C(=N\Nc1nc(-c2ccccc2)cs1)/c1ccncc1 | 6.31 µM [falling, partial curve, poor fit] | – |
| Cc1ccc(C2=CC(=O)C[C@H](c3ccc(F)cc3)C2)cc1 | 5.17 µM [rising, partial curve, poor fit] | – |

| Structure (SMILES) | AC50 [1] | AC50 [2] |
| --- | --- | --- |
| COc1ccc(CCN2CC(C(=O)OCC(=O)N(C)Cc3ccccc3)CC2=O)cc1OC (stereo not drawn) | 29.1 µM [falling, single point] | – |
| C=CCSc1nc2ccccc2n1C(=O)/C=C/c1cc(OC)c(OC)c(OC)c1 | 10 µM [falling, partial curve] | – |
| COc1cc(SC)ccc1C(=O)Nc1cccc(C2OCCCO2)c1 | 1.58 µM [falling, full curve] | – |
| Cc1ccccc1OCCCC(=O)Nc1nccs1 | 29.1 µM [falling, single point] | – |
| CC1CCCC(C)N1C(=O)COC(=O)CSc1ccc([N+](=O)[O-])cc1 (stereo not drawn) | 2.31 µM [falling, full curve, poor fit] | – |
| CC(C)(C)C(=O)/C=C1\SCC(=O)N1CC(=O)N1CCN(c2ccccc2)CC1 | 25.9 µM [rising, single point] | – |
| CCCCNC(=O)c1ccc2c(SCC(=O)O)c3c(nc2c1)CCCC3 | 1.3 µM [rising, full curve, poor fit] | – |
| CCOC(=O)N1CCN(CC(O)COC2CC(C)CCC2C(C)C)CC1 (stereo not drawn) | 14.6 µM [rising, partial curve, poor fit] | – |
| Nc1c(C(=O)Nc2ccccc2)sc2nc(-c3cccnc3)ccc12 | 11.2 µM [falling, single point] | – |
| N=C1/C(=C\c2ccc(OCc3ccccc3)cc2)C(=O)N=C2SC(N3CCCC3)=NN12 | 22.4 µM [rising, single point] | – |
| Cc1ccc(-n2cc(-c3ccccc3)c3c(N4CCCCC4)ncnc32)cc1 | 6.31 µM [rising, single point] | – |
| CC(=O)c1cc(C(=O)Nc2ccccc2C(=O)O)oc1C | 0.708 µM [falling, full curve] | – |
| Cc1ccc(C(=O)OCC(=O)c2ccccc2)cc1 | 35.5 µM [falling, single point] | – |
| CCOc1ccccc1OCCC(=O)Nc1ccc(F)c(Cl)c1 | 6.51 µM [rising, single point] | – |
| CCCCn1c(C2CCCCC2)nc2cc3[nH]c(=O)c(C(C)C)nc3cc21 | 7.08 µM [falling, partial curve, poor fit] | – |
| Nn1cnc2scc(-c3ccco3)c2c1=O | 3.55 µM [falling, full curve] | – |
| COc1cc(OC)cc(C(=O)Nc2c(F)cccc2F)c1 | 10.3 µM [falling, partial curve, poor fit] | – |
| Cc1ccc(C(=O)/C=C/c2ccc(F)cc2)o1 | 20.6 µM [falling, single point] | – |
| CCN(CC)C(=O)C1CCCN(Cc2ccc3c(c2)OCO3)C1 (stereo not drawn) | 6.51 µM [rising, partial curve, poor fit] | – |
| Cc1cccc(C(=O)Nc2cccc(NC(=O)c3ccccc3)c2)c1 | 35.5 µM [falling, single point] | – |
| C=CCOC(=O)C1=C[C@@H](c2csc3ccccc23)C[C@@H](OCc2ccc(CO)cc2)O1 | 35.5 µM [falling, single point] | – |
